Results are given in words; binding and its absence hold for the method and conditions named.

The target in the assay is T1, Gerbich-type glycophorin C, endogenous, of Gerbich-negative human erythrocytes (human (endogenous in erythrocytes)) (UniProt P04921).
T1 sequence: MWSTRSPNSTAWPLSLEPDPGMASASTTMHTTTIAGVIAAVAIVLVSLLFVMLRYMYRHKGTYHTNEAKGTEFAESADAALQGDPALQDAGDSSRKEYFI
In words: flow cytometry on cells; Region II (4 ug) incubated with 3x10^5 native, trypsin- or neuraminidase-treated human normal or Gerbich-negative erythrocytes in PBS pH 7.4, 2 h at 4°C; detected with rabbit anti-Region II serum and FITC anti-rabbit Ig; only the binder purified. (In flow cytometry, cells or beads pass a laser one at a time.)

For “recombinant, baculovirus-expressed Region II of P. falciparum EBA-140 ligand (domain or fragment)”, the binding result is reported as “no binding (tested: 4 ug)”.

For the origin of these results see paper PMC4294638.
